Assay results published in publication PMC3852661, “Structural basis of SUFU–GLI interaction in human Hedgehog signalling regulation” (Acta Crystallographica Section D: Biological Crystallography, 2013).

Protein sequences, listed by entry. Tags and fused reporters are not part of them. Lines headed by an entry give the natural chain unless they say otherwise; changes in a name come on top.
UniProt P08151: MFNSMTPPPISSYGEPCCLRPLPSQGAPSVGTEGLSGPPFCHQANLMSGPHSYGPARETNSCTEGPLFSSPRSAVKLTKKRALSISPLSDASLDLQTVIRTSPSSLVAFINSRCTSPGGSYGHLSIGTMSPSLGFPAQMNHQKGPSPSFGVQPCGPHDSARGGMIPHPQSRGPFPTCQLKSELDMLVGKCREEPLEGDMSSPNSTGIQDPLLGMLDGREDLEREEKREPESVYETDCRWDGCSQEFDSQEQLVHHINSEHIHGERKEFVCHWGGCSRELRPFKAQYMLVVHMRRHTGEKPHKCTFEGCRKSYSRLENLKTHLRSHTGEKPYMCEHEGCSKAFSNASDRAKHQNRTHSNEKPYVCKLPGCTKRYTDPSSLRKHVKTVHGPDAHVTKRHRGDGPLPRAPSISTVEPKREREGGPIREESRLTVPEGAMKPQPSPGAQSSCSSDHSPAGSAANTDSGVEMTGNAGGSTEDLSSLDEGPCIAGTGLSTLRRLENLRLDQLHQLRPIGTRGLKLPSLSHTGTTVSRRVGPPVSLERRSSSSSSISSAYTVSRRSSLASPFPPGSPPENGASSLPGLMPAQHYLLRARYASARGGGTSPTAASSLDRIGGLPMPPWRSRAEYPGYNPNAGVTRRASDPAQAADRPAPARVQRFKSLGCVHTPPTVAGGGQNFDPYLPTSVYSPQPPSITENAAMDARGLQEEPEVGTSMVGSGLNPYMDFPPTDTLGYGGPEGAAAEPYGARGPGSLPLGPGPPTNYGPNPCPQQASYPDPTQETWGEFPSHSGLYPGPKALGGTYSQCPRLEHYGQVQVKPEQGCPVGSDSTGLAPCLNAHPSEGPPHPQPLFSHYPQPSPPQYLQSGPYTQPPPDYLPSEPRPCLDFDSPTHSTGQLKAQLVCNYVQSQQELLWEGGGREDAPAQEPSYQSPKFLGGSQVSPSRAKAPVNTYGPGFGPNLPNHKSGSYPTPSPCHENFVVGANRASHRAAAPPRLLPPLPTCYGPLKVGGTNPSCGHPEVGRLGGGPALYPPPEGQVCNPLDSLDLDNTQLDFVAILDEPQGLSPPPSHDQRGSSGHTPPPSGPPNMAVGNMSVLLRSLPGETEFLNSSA
UniProt Q9UMX1: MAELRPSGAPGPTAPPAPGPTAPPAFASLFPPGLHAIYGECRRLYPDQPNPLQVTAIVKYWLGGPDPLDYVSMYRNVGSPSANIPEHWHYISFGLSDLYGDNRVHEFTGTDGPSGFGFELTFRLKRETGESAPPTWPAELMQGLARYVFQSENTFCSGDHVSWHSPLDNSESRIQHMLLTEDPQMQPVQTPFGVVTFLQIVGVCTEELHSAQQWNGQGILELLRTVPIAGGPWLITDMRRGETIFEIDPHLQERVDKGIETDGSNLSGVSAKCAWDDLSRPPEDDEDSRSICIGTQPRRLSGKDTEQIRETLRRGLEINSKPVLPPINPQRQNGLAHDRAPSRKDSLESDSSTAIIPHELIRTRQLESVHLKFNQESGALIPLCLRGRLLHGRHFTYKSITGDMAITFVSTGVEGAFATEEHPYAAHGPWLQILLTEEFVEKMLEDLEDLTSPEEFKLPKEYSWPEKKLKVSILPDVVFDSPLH

Target: C-terminally FLAG-tagged GLI1 (human) (UniProt P08151)
Experiment: co-IP; Cos-7 cells transfected separately with GLI1-FLAG and Myc-SUFU; normalized lysates combined and pre-incubated 6 h; anti-FLAG M2 and anti-Myc 9b11 agarose, 16 h; Western blot

- binding: binds
Substance: SUFU-Δ (from UniProt Q9UMX1)

No constants are given. Whether binding was seen depends on the method and setting. Binding seen in cells or lysates may run through a third protein. Binding calls can cover weak binding; strength is not graded here.
